We go through 167 variants from the RNAGym collection of RNA variant scans (doi:10.1126/science.aae0568).

Sequences and labels used below:
B1: tRNA (parent)
chain: GUUCCGUUGGCGUAAUGGUAACGCGUCUCCCUCCUAAGGAGAAGACUGCGGGUUCGAGUCCCGUACGGAACG

This sample is rich in variants without activity. A value given as a limit tells only on which side of the number the result lay.

In this series the parent is B1. The series is described as follows: yeast fitness relative to wild type (ratio to wild type); higher = fitter; tRNA-Arg(CCU), competitive growth, 37 C, YPD. The method, boiled down: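 Start and end populations of a pooled competition were compared by 100-nucleotide paired-end sequencing of gene amplicons. The Saccharomyces cerevisiae strains carried tRNA-Arg(CCU) gene variants at the native genomic locus, synthesised with a 3% per-site mutation rate at 69 sites, and competed in YPD at 37°C for 24 hours in six parallel replicates. Darwinian fitness relative to wild type was based on the change in genotype frequencies. Genotypes required ≥ 100 starting reads, and estimates < 0.5 were set to 0.5.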
For G6C A37G A40U A45C, the yeast fitness was 0.702.

As to C5U G18A C29G A37C, the yeast fitness is at most 0.5.

In the case of U2A G12A G23A C29G, the yeast fitness was at most 0.5.

In the case of G44A G63A, the yeast fitness was 0.97.

As for C4G C5G C11A G38A G67A, the yeast fitness is at most 0.5.

Take G18C G23A C61U: the yeast fitness is at most 0.5.

In the case of U28G A69C A70C, the yeast fitness was at most 0.5.

Regarding C24U A36G A43C G44A C66U, the yeast fitness was at most 0.5.

Consider U32C U35A U47C, for which the yeast fitness was at most 0.5.

As for C5G U13C U32A, the yeast fitness was at most 0.5.

As to G17C G23C, the yeast fitness turned out to be 0.517.

Turning to C5U U26A A57G C61U, the yeast fitness is at most 0.5.

For C11U C27U C29U C49G, the yeast fitness is at most 0.5.

In the case of A14C C31U A36U A70U, the yeast fitness is at most 0.5.

On to C29G G56U, for which the yeast fitness is at most 0.5.

With G6A U26G C30U G52A, the yeast fitness is at most 0.5.

With C29U A43G C49A C66U, the yeast fitness was at most 0.5.

For U2G C33U A36U A43C A65U G68U, the yeast fitness is at most 0.5.

Take G6A A14G C49U: the yeast fitness was 0.57.

With C4A A14C A70G, the yeast fitness was at most 0.5.

Turning to G17C A40U G63U C66G, the yeast fitness is at most 0.5.

As to U28C U32C C33U G56A, the yeast fitness is at most 0.5.

For U7C U28A C31U C55G C66U, the yeast fitness is at most 0.5.

As for U7A A36U C55U, the yeast fitness was at most 0.5.

Take G10C C22G C29A C46U: the yeast fitness was at most 0.5.

Turning to C11G U16A A21U G23C A57U, the yeast fitness is at most 0.5.

Regarding U3G U8C G9U C30U G58C G63C, the yeast fitness was at most 0.5.

Regarding A14G G48A C66U, the yeast fitness was 0.645.

U32C C33G U47A: the yeast fitness was at most 0.5.

On to A37U G38A, for which the yeast fitness came to 0.631.

For the variant U19C A43G G44C A45C A65C, the yeast fitness is at most 0.5.

As for A20U A45G C55U G67A, the yeast fitness is at most 0.5.

For the variant G23A C29A C31U A42G A43C U54G, the yeast fitness is at most 0.5.

As for A21U G48C C61G C62A C66U, the yeast fitness was at most 0.5.

Take C22U U28C C29G C33A G68C: the yeast fitness is at most 0.5.

On to C30A G38A C55A A65C A69U, for which the yeast fitness is at most 0.5.

For U3A C27G A43G, the yeast fitness was at most 0.5.

For the variant U7C U32G, the yeast fitness came out at 0.576.

As to C11G C22G C33G U47C, the yeast fitness is at most 0.5.

As to C33U G39C, the yeast fitness was 0.622.

Take U19C U47A C49U A57C: the yeast fitness was at most 0.5.

For G10A C30U G50A C66U, the yeast fitness is at most 0.5.

Regarding A21C U26A C27G G44C C49A U64C, the yeast fitness is at most 0.5.

In the case of U16G C29U C31A C46U, the yeast fitness turned out to be 0.716.

For U3G A15U C61A, the yeast fitness was at most 0.5.

For the variant C34U A37G C46U C61A, the yeast fitness was found to be 0.589.

With C30G G68U, the yeast fitness was determined as 0.64.

Consider C4U U26A G38A G63C, for which the yeast fitness was at most 0.5.

As to G48A C60G G63C U64C C66G, the yeast fitness is at most 0.5.

Take G51A C60U C61U A65G A69C: the yeast fitness is 0.594.

Take A20G G23C U54A A57C: the yeast fitness was at most 0.5.

Consider U2C C4U G10C U64C, for which the yeast fitness was at most 0.5.

For G9A C31U C46G C49U C66G, the yeast fitness was at most 0.5.

On to U28G C33A A45G, for which the yeast fitness was at most 0.5.

As for C46A A57G G68A, the yeast fitness was determined as 0.605.

On to U7A U13C A20C, for which the yeast fitness was at most 0.5.

As to C11G A15U C24G A40G, the yeast fitness was at most 0.5.

Regarding C31U U64G A65U, the yeast fitness was at most 0.5.

For C31A C33U G41A A65C, the yeast fitness was at most 0.5.

With C29U C49A G50A G63C, the yeast fitness was at most 0.5.

Consider U16A A42C A69U, for which the yeast fitness turned out to be 0.505.

With G38A C55G C61U, the yeast fitness was at most 0.5.

On to G12A A43U A45C G67C, for which the yeast fitness amounted to 0.542.

As for C5G U8G G68U, the yeast fitness is at most 0.5.

For the variant C11A C31A A45U, the yeast fitness was at most 0.5.

For C29G U32C C62G, the yeast fitness is at most 0.5.

For the variant C34A C49A C60G C62A A65G, the yeast fitness is at most 0.5.

On to U26G C27U G56A A65C, for which the yeast fitness was at most 0.5.

A42G G56U C61G: the yeast fitness was at most 0.5.

A21C C46U A65U: the yeast fitness worked out at 0.556.

Take U8C A21U C24A: the yeast fitness is at most 0.5.

With A14G C30G C61U, the yeast fitness was at most 0.5.

Take C11G G39C C55U: the yeast fitness was at most 0.5.

Take C5U G18A G23C C24G C46G: the yeast fitness was at most 0.5.

For A14U C22G U28G G63C, the yeast fitness is at most 0.5.

With G9C A42G C62G, the yeast fitness was at most 0.5.

In the case of C29U A45C A57G A65U, the yeast fitness was at most 0.5.

In the case of U7A U19C U28C C29G A57U, the yeast fitness was at most 0.5.

Consider A20G C46U G63A, for which the yeast fitness came to 0.82.

As for C5G C11U U28A, the yeast fitness was at most 0.5.

In the case of A37C A43U G52A C62A C66A, the yeast fitness is at most 0.5.

For the variant C22A C61G A65U, the yeast fitness is at most 0.5.

For the variant G6C A15G C24U C55U C60A, the yeast fitness is at most 0.5.

A45G A57U: the yeast fitness amounted to 0.751.

With G18A U19A G23C U35C, the yeast fitness was at most 0.5.

On to C5G A21U C55A, for which the yeast fitness was at most 0.5.

Take A21C G23C G51A G52C A65C: the yeast fitness is at most 0.5.

In the case of A14G G48A A57G A69U, the yeast fitness was at most 0.5.

On to C4A A14G U26A A65U, for which the yeast fitness was at most 0.5.

C4U C27A A40C A65C: the yeast fitness is at most 0.5.

Regarding A14U C27G A57G C62A, the yeast fitness is at most 0.5.

In the case of C11U C27U C31A U35C, the yeast fitness is at most 0.5.

Consider U2G U7C C29G C60A, for which the yeast fitness was at most 0.5.

As to G10C C27U A43G A69U, the yeast fitness was at most 0.5.

For the variant C22G C29G A42C A45C C61G A69U, the yeast fitness is at most 0.5.

Consider C30U G51C G58C, for which the yeast fitness was at most 0.5.

For the variant G12C G17C G39A, the yeast fitness is at most 0.5.

With C30U A45C A57G C62U, the yeast fitness is at most 0.5.

For the variant C22U U35C A36C, the yeast fitness was at most 0.5.

Turning to U3C C27U C62U, the yeast fitness is 0.617.

Turning to C29U C60A C62U, the yeast fitness was at most 0.5.

Take G10C G58A C66G: the yeast fitness was at most 0.5.

In the case of U16C A21C A37G A69G A70G, the yeast fitness is at most 0.5.

For the variant U3C A21G G23A C31U G63C U64A C66G, the yeast fitness was at most 0.5.

Regarding U19A C22U G50U, the yeast fitness was at most 0.5.

Take C4A G10C C49G: the yeast fitness was at most 0.5.

Regarding A21C C22G G67A A69U, the yeast fitness was at most 0.5.

As to C4G U7C C27U, the yeast fitness is at most 0.5.

For the variant A14C G18A C62U, the yeast fitness was at most 0.5.

As for C5U C31U G39A G67C, the yeast fitness is at most 0.5.

A15G G25A U47C: the yeast fitness is at most 0.5.

On to U2A A20C A37G G52A U53A, for which the yeast fitness is at most 0.5.

Regarding C24A C33U, the yeast fitness was determined as 0.601.

C22U G38C A43C C61A: the yeast fitness was at most 0.5.

Regarding G17A C31G U35C G68A, the yeast fitness was at most 0.5.

Turning to C11G U54C, the yeast fitness stood at 0.512.

In the case of G23A C55G C60A, the yeast fitness is at most 0.5.

As to U35C G41A G44A A57U C66G, the yeast fitness was at most 0.5.

As to C27A C30G C49U G56C, the yeast fitness is at most 0.5.

With U8A G58A, the yeast fitness stood at 0.771.

Turning to U8C C22G U47C U53G, the yeast fitness is at most 0.5.

C34G G58A G63C: the yeast fitness is at most 0.5.

Consider U2A C11G A37U C49G C60G, for which the yeast fitness was at most 0.5.

As to A42C C60A G63C, the yeast fitness was at most 0.5.

Take A14G A15U G23C G50C U54A G63C: the yeast fitness is at most 0.5.

With A14G A20U C31A G52A C66U, the yeast fitness is at most 0.5.

As to C11A G18C C27G A57G, the yeast fitness is at most 0.5.

For the variant U16C C27A A36G A70U, the yeast fitness was at most 0.5.

As to C27U C30A G51A, the yeast fitness was at most 0.5.

For C5G C49A G63A, the yeast fitness was at most 0.5.

Turning to G12A C24G A40C A42G A43C C46U G68C A69U, the yeast fitness was at most 0.5.

In the case of U16A A20C C22G C24A, the yeast fitness was at most 0.5.

U13A G67C: the yeast fitness stood at 0.945.

Regarding G17C U19A G50A, the yeast fitness is at most 0.5.

In the case of A14U C55A U59G A65C, the yeast fitness was 0.561.

With C66U G68C, the yeast fitness came to 0.779.

Regarding U3G A42G G44C, the yeast fitness is at most 0.5.

For G44C C61A, the yeast fitness stood at 0.583.

For U7A G51A G52A A70G, the yeast fitness is at most 0.5.

Turning to U3A U7A A15U C29G A45U C60G, the yeast fitness is at most 0.5.

Take U3C C62A: the yeast fitness amounted to 0.865.

As for A14C A40U G52A C55G C61U C66U, the yeast fitness is at most 0.5.

Turning to U2G C22U C24G U35C C49U C61G, the yeast fitness is at most 0.5.

As for U3A C4G U8A C49G, the yeast fitness was at most 0.5.

Regarding A20G C31G C60G G63C, the yeast fitness was at most 0.5.

For C33A G50U C61A, the yeast fitness is at most 0.5.

With G9C A15G G48A C55U, the yeast fitness is at most 0.5.

Consider U8C C11G A15U A20G A21G, for which the yeast fitness was at most 0.5.

On to U8C C27G A42G, for which the yeast fitness is at most 0.5.

For C4A A15G C31G G50A, the yeast fitness was at most 0.5.

As to A42G C55U, the yeast fitness is 0.688.

In the case of U8A U19A G50C, the yeast fitness is at most 0.5.

For the variant G12A C22G A45C A57U C62A, the yeast fitness is at most 0.5.

As for C29A A43U U64A, the yeast fitness was at most 0.5.

On to G12A G18A U19C C55U A57C G58C G63A, for which the yeast fitness was at most 0.5.

Turning to U8C C24G G38C U53G, the yeast fitness came out at 0.635.

Consider U8C C29A U54A, for which the yeast fitness is at most 0.5.

For U28G G38C A40G, the yeast fitness came out at 0.546.

C4U C30G C31G C62A A65C: the yeast fitness is at most 0.5.

For A21U G23A C49A, the yeast fitness was at most 0.5.

C22G A43U C46G C66U: the yeast fitness was at most 0.5.

Consider C11G C27U U47A G52C A65G, for which the yeast fitness is at most 0.5.

With A15C U19C C31U C34U A65C, the yeast fitness is at most 0.5.

C5G A15G G67A: the yeast fitness was at most 0.5.

With C4U C11U A15G C34U U54C C55U G67U A69C, the yeast fitness is at most 0.5.

As for C11U U26G U28C C31U C49A G58C C62U, the yeast fitness was at most 0.5.

Consider C5A U35C G68U, for which the yeast fitness was at most 0.5.
